Data: US20240025959A1
No constants are given. Whether binding was seen depends on the method and setting. Binding seen in cells or lysates may run through a third protein. Binding can be weak; no strength is given.

Amino acid sequences for entries named in this document (tags omitted). A change or cut given only in a name is not applied to a line headed by its entry.
UniProt Q96P20: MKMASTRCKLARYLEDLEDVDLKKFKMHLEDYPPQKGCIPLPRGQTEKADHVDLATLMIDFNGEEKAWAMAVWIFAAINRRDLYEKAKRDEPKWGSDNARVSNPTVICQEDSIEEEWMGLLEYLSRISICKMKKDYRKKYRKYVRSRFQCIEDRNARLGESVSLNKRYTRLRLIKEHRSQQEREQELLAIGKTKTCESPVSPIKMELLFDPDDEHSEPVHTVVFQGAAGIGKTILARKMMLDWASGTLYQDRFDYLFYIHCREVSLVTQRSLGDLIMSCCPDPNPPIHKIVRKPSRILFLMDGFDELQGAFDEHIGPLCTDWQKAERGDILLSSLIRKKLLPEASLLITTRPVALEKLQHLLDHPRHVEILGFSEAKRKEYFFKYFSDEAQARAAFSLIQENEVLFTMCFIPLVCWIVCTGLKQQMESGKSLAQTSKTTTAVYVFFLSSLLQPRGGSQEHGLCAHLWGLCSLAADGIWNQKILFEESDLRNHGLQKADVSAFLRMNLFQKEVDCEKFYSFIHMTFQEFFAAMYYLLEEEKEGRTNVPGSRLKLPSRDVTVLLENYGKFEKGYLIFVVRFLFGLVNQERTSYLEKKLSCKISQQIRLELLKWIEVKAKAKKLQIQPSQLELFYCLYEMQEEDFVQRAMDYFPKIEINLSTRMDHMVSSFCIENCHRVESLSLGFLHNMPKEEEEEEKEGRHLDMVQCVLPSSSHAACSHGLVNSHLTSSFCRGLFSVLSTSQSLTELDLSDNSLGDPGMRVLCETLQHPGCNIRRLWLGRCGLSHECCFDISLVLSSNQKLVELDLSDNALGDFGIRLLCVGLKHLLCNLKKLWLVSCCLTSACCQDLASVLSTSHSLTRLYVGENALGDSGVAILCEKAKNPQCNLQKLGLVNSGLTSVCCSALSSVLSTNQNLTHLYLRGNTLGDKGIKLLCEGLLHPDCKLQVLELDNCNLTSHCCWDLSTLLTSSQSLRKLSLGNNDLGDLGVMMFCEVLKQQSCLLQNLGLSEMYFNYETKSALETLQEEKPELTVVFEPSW

Target: T1, Beclin 2 (human, full length) (human) (UniProt A8MW95)
T1 sequence: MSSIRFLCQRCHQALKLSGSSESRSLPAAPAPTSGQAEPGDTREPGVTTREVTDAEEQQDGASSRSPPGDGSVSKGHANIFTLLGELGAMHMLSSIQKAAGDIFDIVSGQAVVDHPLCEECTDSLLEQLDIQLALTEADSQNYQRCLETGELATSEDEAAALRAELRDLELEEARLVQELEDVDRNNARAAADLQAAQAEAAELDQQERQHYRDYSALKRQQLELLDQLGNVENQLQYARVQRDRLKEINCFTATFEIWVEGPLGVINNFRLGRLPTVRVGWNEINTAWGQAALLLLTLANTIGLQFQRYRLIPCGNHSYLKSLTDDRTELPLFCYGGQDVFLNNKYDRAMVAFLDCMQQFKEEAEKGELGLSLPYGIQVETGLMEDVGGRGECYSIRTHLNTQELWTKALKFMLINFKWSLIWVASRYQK
Experiment: co-IP with anti-Flag beads; HEK293T cells co-transfected with Flag-Beclin 2 and HA-tagged NLRP3 domain truncations (FIG. 25G)

binding: binds
Substance: NLRP3-LRR (LRR domain of NLRP3, residues 560-894) (from UniProt Q96P20)
